System: breast tissue microstructures
Assay: Total RNA sequencing of high-risk breast tissue microstructures
Format: cell-based, human
Details: 5 µM, 24 h, adj P < 0.05, six donors

O=C1C[C@@H](c2ccc(O)cc2)Oc2cc(O)ccc21 [LigF, liquiritigenin]
Number of significantly downregulated differentially expressed genes: 2088
Number of significantly upregulated differentially expressed genes: 1199
